Assay results reported in paper PMC12148940.
These are yes or no findings as the source states them, for the method shown. Binding seen in cells or lysates may run through a third protein. A yes stands for co-enrichment or nearness to the bait. Other partners may have been found. For some assays here: No binding means not detected with the bait.

The chains behind the UniProt entries cited, without tags or fusion partners.
UniProt P99999: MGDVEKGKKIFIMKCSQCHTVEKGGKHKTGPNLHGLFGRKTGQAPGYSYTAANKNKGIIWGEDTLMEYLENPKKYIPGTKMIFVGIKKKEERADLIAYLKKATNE
UniProt O95793: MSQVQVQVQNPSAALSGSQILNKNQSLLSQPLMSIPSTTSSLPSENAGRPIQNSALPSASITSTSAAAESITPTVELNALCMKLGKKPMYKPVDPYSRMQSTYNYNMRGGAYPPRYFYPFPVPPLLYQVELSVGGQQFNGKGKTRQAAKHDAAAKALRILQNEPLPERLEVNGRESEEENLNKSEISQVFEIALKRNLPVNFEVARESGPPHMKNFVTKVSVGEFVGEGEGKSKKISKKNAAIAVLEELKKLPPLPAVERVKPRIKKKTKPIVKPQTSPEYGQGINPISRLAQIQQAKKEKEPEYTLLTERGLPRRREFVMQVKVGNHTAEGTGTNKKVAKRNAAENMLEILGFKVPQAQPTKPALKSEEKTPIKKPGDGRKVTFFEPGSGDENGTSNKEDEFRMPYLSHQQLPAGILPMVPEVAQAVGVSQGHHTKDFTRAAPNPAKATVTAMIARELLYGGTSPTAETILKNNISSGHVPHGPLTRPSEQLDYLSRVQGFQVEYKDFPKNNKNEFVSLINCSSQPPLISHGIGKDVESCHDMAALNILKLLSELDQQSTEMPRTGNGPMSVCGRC

Columns and labels:
[1] = biological target: G3BP1 (human (endogenous in neurons made from human fibroblasts or iPSCs)) (UniProt Q13283); assay: condition: only in transdifferentiated (aged) neurons; affinity purification with mass spectrometry; G3BP1 antibody on Dynabeads, same buffers; lysate of transdifferentiated (aged) neurons only
[2] = biological target: G3BP1 (human (endogenous in neurons made from human fibroblasts or iPSCs)) (UniProt Q13283); assay: affinity purification with mass spectrometry; G3BP1 antibody on anti-rabbit IgG Dynabeads, ~3 mg lysate protein, 16 h at 4 °C; IP lysis buffer 50 mM Tris-HCl pH 7.4, 150 mM NaCl, 1 mM EDTA, 0.5% IGEPAL-CA630; lysates of iPSC-derived neurons (unstressed or 1 h sodium arsenite) and transdifferentiated neurons compared, n = 2
[3] = biological target: HSP90α (human (endogenous in neurons made from human fibroblasts or iPSCs)) (UniProt P07900); assay: affinity purification with mass spectrometry; HSP90α antibody on anti-rabbit IgG Dynabeads, ~3 mg lysate protein, 16 h at 4 °C; IP lysis buffer 50 mM Tris-HCl pH 7.4, 150 mM NaCl, 1 mM EDTA, 0.5% IGEPAL-CA630; lysates of unstressed iPSC-derived neurons and transdifferentiated neurons compared, n = …

VCP (from UniProt P55072 1-806)
binding [1]: no binding
binding [2]: binds

HSP90α (from UniProt P07900 1-732)
binding [2]: binds

cytochrome c (from UniProt P99999 1-105)
binding [3]: binds

staufen-1 (from UniProt O95793 1-577)
binding [2]: binds
